# From the supplement of paper PMC12889115
# Some of the results follow. Values are raw readings; no control value is given beside them.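 Primary screen: polymyxin B was added at a level permeabilizing Salmonella outer membranes while sparing inner membranes. DMSO wells, both with and without polymyxin B, established maximum growth. Plate-to-plate variation meant each plate was ranked on its own, and the lowest-OD600 compounds were selected as hits.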
# System: Salmonella enterica serovar Typhimurium SL1344
# Experiment: bacterial growth OD600 after 18 h with compound and polymyxin B; higher = more bacterial growth (less inhibition)
# Details: 50 µM, Mueller-Hinton broth
compound,measurement,setting,value
CCOC(=O)C1(Cc2ccccc2C(F)(F)F)CCN(Cc2nccn2CC)CC1,bacterial growth OD600,polymyxin B 1 µg/mL,0.912
CC1(C(=O)NC2CC(=O)N(Cc3ccccc3C(F)(F)F)C2)CC1 (centres undefined),bacterial growth OD600,polymyxin B 1 µg/mL,0.94
O=C1CCC(CCC(=O)N2CCCC2c2nc3ccccc3s2)(Cc2ccc3c(c2)OCO3)N1 (centres undefined),bacterial growth OD600,polymyxin B 0.75 µg/mL,0.781
Cc1nc2ccc(C(=O)N3CCCC(CO)(CCOc4ccccc4)C3)cc2nc1C (centres undefined),bacterial growth OD600,polymyxin B 0.75 µg/mL,0.768
COCCC(=O)Nc1cc(C(=O)N(C)Cc2cn(C)nc2C)cc2nc(-c3ccccc3)n(C)c12,bacterial growth OD600,polymyxin B 0.75 µg/mL,0.841
CC(C)NC1CC(C)(C)Cc2nc(N3CCC(O)CC3)ncc21 (centres undefined),bacterial growth OD600,polymyxin B 0.75 µg/mL,0.935
CS(=O)(=O)N1CCc2onc(-c3ccc(-c4ccccc4)cc3)c2C1,bacterial growth OD600,polymyxin B 0.75 µg/mL,0.954
CCN(C)c1ccc(C(=O)NCCCc2c(C)noc2C)cn1,bacterial growth OD600,polymyxin B 1 µg/mL,1.05
CSc1nccc(-c2cc(Cl)c3c(c2)CC(CNC(=O)c2ccnn2C)O3)n1 (centres undefined),bacterial growth OD600,polymyxin B 0.75 µg/mL,0.687

# Two entries from above, tab-delimited.
compound	measurement	setting	value
Cc1nc2ccc(C(=O)N3CCCC(CO)(CCOc4ccccc4)C3)cc2nc1C (centres undefined)	bacterial growth OD600	polymyxin B 0.75 µg/mL	0.768
CS(=O)(=O)N1CCc2onc(-c3ccc(-c4ccccc4)cc3)c2C1	bacterial growth OD600	polymyxin B 0.75 µg/mL	0.954
